# According to patent US7659400B2, “Radiolabelled benzamide analogues, their synthesis and use in diagnostic imaging” (Washington University, priority 2003, dated 2010):
# System: EMT-6 tumors
# Test: microPET/microCT imaging of EMT-6 tumors
# Type: in vivo, female Balb/c mice
# Details: ~0.25 mCi via tail vein, imaged 1 h later
row,SMILES,identification of EMT-6 tumors by microPET
1,COc1cc2c(cc1OC)CN(CCCCNC(=O)c1cc(C)ccc1OCC[18F])CC2 [[^18F]3c],readily identifiable
2,COc1cc2c(cc1OC)CN(CCCCNC(=O)c1cc(I)cc(OC)c1OCC[18F])CC2 [[^18F]3f],readily identifiable
